Article PMC7862700
This is a selection; strong and weak results do not stand in their true shares. At the low end of the ranking the order means little.

Sequences of proteins named here, by UniProt entry; tags and fusion partners are left off. A change or cut given only in a name is not applied to a line headed by its entry.
UniProt O43186: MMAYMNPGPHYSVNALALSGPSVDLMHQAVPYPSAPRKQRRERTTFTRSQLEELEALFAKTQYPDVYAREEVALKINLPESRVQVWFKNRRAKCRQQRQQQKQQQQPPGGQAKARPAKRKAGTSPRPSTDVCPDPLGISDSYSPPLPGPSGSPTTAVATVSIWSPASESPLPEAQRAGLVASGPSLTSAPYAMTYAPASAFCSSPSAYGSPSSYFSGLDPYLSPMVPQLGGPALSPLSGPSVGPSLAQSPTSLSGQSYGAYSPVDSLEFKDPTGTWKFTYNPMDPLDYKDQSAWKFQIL

Columns and labels:
Test in all cases: DAPPL (digital affinity profiling via proximity ligation, sequencing)
Settings in all cases: 10 mM Tris-HCl pH 7.5, 50 mM NaCl, 1 mM DTT, 4% glycerol, room temperature, 30 min; GST-TFs on glutathione beads, 16-mer random dsDNA library, 0.1% …; high values mean tight binding; double strand, one strand shown; scale: fold enrichment (6-mer frequency, TF over GST control)
CRX = CRX (UniProt O43186)
ELF5 = target: T1, ELF5 (UniProt Q9UKW6-2)
T1 sequence: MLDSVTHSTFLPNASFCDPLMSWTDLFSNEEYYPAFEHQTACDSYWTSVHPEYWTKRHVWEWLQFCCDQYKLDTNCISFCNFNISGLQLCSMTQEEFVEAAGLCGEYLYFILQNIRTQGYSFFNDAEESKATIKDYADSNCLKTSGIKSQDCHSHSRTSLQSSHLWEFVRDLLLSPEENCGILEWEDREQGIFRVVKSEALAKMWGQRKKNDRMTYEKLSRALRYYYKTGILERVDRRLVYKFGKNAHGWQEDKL

FEV = target: T2, FEV (UniProt Q99581)
T2 sequence: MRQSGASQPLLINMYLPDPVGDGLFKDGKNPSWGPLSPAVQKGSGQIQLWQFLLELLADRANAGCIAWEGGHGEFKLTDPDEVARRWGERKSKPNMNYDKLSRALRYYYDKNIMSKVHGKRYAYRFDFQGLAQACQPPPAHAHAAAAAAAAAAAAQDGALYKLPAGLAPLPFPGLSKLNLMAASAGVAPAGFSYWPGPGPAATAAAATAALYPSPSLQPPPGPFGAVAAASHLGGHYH

Row | Sequence | binding signal (CRX) | binding signal (ELF5) | binding signal (FEV)
1 | CACGCC | 0.813 | 1.1 | –
2 | AACTCG | 1.3 | 1.35 | –
3 | TCGATT | 1.37 | 1.03 | –
4 | ATGGAA | 1.22 | 1.13 | –
5 | AGCAGC | 0.944 | 0.992 | –
6 | AGATCC | 1.11 | 1.22 | –
7 | TATAGT | 1.34 | 1.04 | –
8 | ATATCG | 1.07 | 1.1 | –
9 | GGCCCC | 0.732 | 0.898 | –
10 | TTATTG | 2.35 | 1.2 | –
11 | TCTTTG | 1.27 | 1.09 | –
12 | CCGGAA | 0.938 | 6.42 | –
13 | TTACCC | 1.95 | 1.43 | –
14 | TCCAAT | 1.27 | 1.15 | –
15 | TGTCTC | 0.916 | 1.26 | –
16 | ACTTTT | 1.25 | 1.26 | –
17 | ATATGT | 0.941 | 1.13 | –
18 | TTTGGT | 1.51 | 1.4 | –
19 | TCCTTT | 1.67 | 2 | –
20 | AAATTG | 1.05 | 1.22 | –
21 | ACCTAC | 1.02 | 1.29 | –
22 | CTGCAC | 0.944 | 1.1 | –

Row | Sequence | binding signal (CRX) | binding signal (ELF5) | binding signal (FEV)
23 | CTGCCC | 0.902 | 1.19 | –
24 | GGGCTA | 1.15 | 1.09 | –
25 | ATCGAT | 1.25 | 1.09 | –
26 | CATCGA | 1.05 | 1.05 | –
27 | ATACCC | 1.2 | 1.18 | –
28 | AAACCA | 1.14 | 1.13 | –
29 | TAATGC | 2.32 | 1.17 | –
30 | ATACCT | 1.12 | 1.04 | –
31 | CTCATT | 1.45 | 1.5 | –
32 | CGATCG | 0.941 | 0.913 | –
33 | CACTGG | 0.956 | 0.988 | –
34 | TACCCG | 1.29 | 1.5 | –
35 | CGTCCC | 0.884 | 1.31 | –
36 | TTTGAG | 1.23 | 1.03 | –
37 | TGAACC | 0.999 | 1.09 | –
38 | CCCCGG | 0.822 | 1.3 | –
39 | TCACAG | 0.993 | 0.993 | –
40 | ATCTAA | 1.83 | 1.17 | –
41 | TACACG | 1.1 | 1.13 | –
42 | TGCCAA | 0.925 | 1.1 | 1.12
43 | CACAAT | 0.956 | 1.06 | 1.06
44 | ATTGAA | 1.06 | 0.965 | 0.964

Row | Sequence | binding signal (CRX) | binding signal (ELF5) | binding signal (FEV)
45 | TAAAAC | 1.66 | 1.12 | –
46 | AGACCT | 0.967 | 1.05 | –
47 | ACACAC | 0.898 | 1.16 | 1.18
48 | TGGTGT | 0.99 | 1.14 | –
49 | TTTTAA | 2.18 | 1.17 | –
50 | ATAGCA | 1.07 | 1.16 | 1.13
51 | CTGATC | 1.95 | 1.32 | –
52 | TTCCTC | 1.43 | 3.84 | –
53 | CTAAGC | 2.45 | 1.07 | 1.05
54 | GACCTA | 1.07 | 1.15 | –
55 | CCCATT | 1.19 | 1.4 | 1.28
56 | TGTCCA | 0.817 | 1.05 | –
57 | CCTGCA | 0.998 | 1.3 | 1.26
58 | CTCCTA | 1.49 | 1.41 | 1.32
59 | CCATTT | 1.01 | 1.31 | –
60 | TACTAG | 1.3 | 0.937 | 0.974
61 | GCGATG | 1.03 | 1.17 | –
62 | CCGTAC | 0.939 | 1.46 | –
63 | ACCCGC | 1.1 | 1.25 | –
64 | CACCAT | 0.831 | 1.1 | –
65 | CCTAGA | 1.22 | 0.986 | 0.943
66 | CGCGAC | 0.836 | 0.999 | –

Some of the entries so far, with tabs.
Row	Sequence	binding signal (CRX)	binding signal (ELF5)	binding signal (FEV)
1	CACGCC	0.813	1.1	–
2	AACTCG	1.3	1.35	–
3	TCGATT	1.37	1.03	–
4	ATGGAA	1.22	1.13	–
5	AGCAGC	0.944	0.992	–
6	AGATCC	1.11	1.22	–
7	TATAGT	1.34	1.04	–
8	ATATCG	1.07	1.1	–
9	GGCCCC	0.732	0.898	–
10	TTATTG	2.35	1.2	–
11	TCTTTG	1.27	1.09	–
12	CCGGAA	0.938	6.42	–
13	TTACCC	1.95	1.43	–
14	TCCAAT	1.27	1.15	–
15	TGTCTC	0.916	1.26	–
16	ACTTTT	1.25	1.26	–

Exported with tabs: entries from further up
Row	Sequence	binding signal (CRX)	binding signal (ELF5)	binding signal (FEV)
29	TAATGC	2.32	1.17	–
52	TTCCTC	1.43	3.84	–
